PubChem BioAssay AID504764 – Drosophila RNAi Screening Center, 2011
Purpose: 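Genome-wide screen for regulators of Notch-driven gene expression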 (primary screen). Cells: Drosophila Kc167 cells. Reagents: long dsRNA against Drosophila genes. Time to read-out: about 5 days (4 days dsRNA, then 24 h after transfection). Treatment: transfection of constitutively active membrane-tethered Notch lacking the extracellular domain, read 24 h later. Measured: 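Light from a Notch-responsive E(spl)m3 luciferase reporter under active Notch, with control-promoter and no-Notch reporter wells to normalise; raw counts from paired wells a and b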. Reading the numbers: induced reporter light, run 1, well a and induced reporter light, run 1, well b: higher = more light from the Notch target reporter with active Notch; control promoter light, run 1, well a and control promoter light, run 1, well b: higher = more light from the viral control promoter (cell number, transfection, viability); uninduced reporter light, run 1, well a: higher = more light from the Notch target reporter without active Notch. Hit rule: 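Hit if the duplicate-averaged log2 ratio of induced to control-promoter light gives a plate-wise z beyond ±2, or induced to uninduced beyond ±1.8; weak-control or discordant-duplicate wells dropped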. Meaning of the calls: active = modifier hit (raised or lowered Notch signal); inactive = not a hit.
The deposit covers about 22,000 reagents; this is a random part of those that have a named target and a result. In the full data, 403 (1.9%) got an active call. 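Unnormalised raw counts per well; ratio z-scores behind the hit calls and whether each hit raises or lowers signal are not deposited.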 A plus sign joins genes that one reagent is predicted to hit. Not stated in the record: the amount of reagent.

gene knocked down | amplicon | induced reporter light, run 1, well a | induced reporter light, run 1, well b | control promoter light, run 1, well a | control promoter light, run 1, well b | uninduced reporter light, run 1, well a | call
CG10116 | DRSC09700 | 1.65e5 | 1.55e5 | 1.21e5 | 1.53e5 | 13435 | inactive
bisc | DRSC04083 | 70780 | 62145 | 43575 | 57030 | 5260 | inactive
ppk3 | DRSC04275 | 1.76e5 | 1.86e5 | 1.30e5 | 1.30e5 | 12165 | active
CG15635 | DRSC00470 | 1.40e5 | 1.13e5 | 1.35e5 | 1.44e5 | 8380 | inactive
CG30412 | DRSC04564 | 2.07e5 | 1.89e5 | 1.60e5 | 1.94e5 | 15440 | inactive
NT1 | DRSC08530 | 1.54e5 | 1.51e5 | 1.57e5 | 1.43e5 | 5500 | inactive
NT1 | DRSC22895 | – | – | – | – | – | inactive
nord | DRSC04210 | 1.62e5 | 1.41e5 | 1.60e5 | 1.45e5 | 10275 | inactive
nord | DRSC04361 | 96610 | 86725 | 1.15e5 | 1.20e5 | 10535 | active
hmw | DRSC16277 | 2.06e5 | 2.20e5 | 2.65e5 | 2.57e5 | 16365 | inactive
tous | DRSC04464 | 1.95e5 | 2.27e5 | 1.66e5 | 1.40e5 | 13400 | inactive
witty | DRSC02378 | 1.20e5 | 1.61e5 | 88330 | 1.01e5 | 19585 | inactive
CG14655 | DRSC12241 | 1.84e5 | 1.61e5 | 2.74e5 | 2.58e5 | 12075 | inactive
CG4480 | DRSC02750 | 1.44e5 | 1.45e5 | 1.60e5 | 1.71e5 | 11095 | inactive
mRpL49 | DRSC19908 | 1.60e5 | 1.30e5 | 3.30e5 | 2.47e5 | 8380 | inactive
CG34461 | DRSC10767 | 3.20e5 | 2.25e5 | 3.10e5 | 2.74e5 | 16078 | inactive
Map205 | DRSC16732 | 95800 | 95055 | 1.88e5 | 2.21e5 | 8215 | active
CG16820 | DRSC02522 | 1.76e5 | 2.22e5 | 1.51e5 | 1.50e5 | 14440 | inactive
pho | DRSC17219 | 83440 | 1.08e5 | 1.57e5 | 1.72e5 | 8470 | inactive
CG33251 (retired record) + CG9915 | DRSC20217 | 71455 | 74980 | 97740 | 70690 | 11982 | inactive
CG4151 | DRSC18351 | 1.47e5 | 1.56e5 | 2.74e5 | 2.61e5 | 12210 | inactive
CG30447 | DRSC05820 | 1.18e5 | 1.11e5 | 1.52e5 | 1.56e5 | 8085 | inactive

In a second layout: results already given.
gene knocked down,amplicon,"induced reporter light, run 1, well a","induced reporter light, run 1, well b","control promoter light, run 1, well a","control promoter light, run 1, well b","uninduced reporter light, run 1, well a",call
witty,DRSC02378,1.20e5,1.61e5,88330,1.01e5,19585,inactive
CG14655,DRSC12241,1.84e5,1.61e5,2.74e5,2.58e5,12075,inactive
CG4480,DRSC02750,1.44e5,1.45e5,1.60e5,1.71e5,11095,inactive
mRpL49,DRSC19908,1.60e5,1.30e5,3.30e5,2.47e5,8380,inactive
CG34461,DRSC10767,3.20e5,2.25e5,3.10e5,2.74e5,16078,inactive

Next results follow.
gene knocked down | amplicon | induced reporter light, run 1, well a | induced reporter light, run 1, well b | control promoter light, run 1, well a | control promoter light, run 1, well b | uninduced reporter light, run 1, well a | call
CG3527 | DRSC18307 | 1.44e5 | 1.22e5 | 1.95e5 | 2.13e5 | 11450 | inactive
Dop2R | DRSC20683 | 80225 | 99735 | 1.08e5 | 1.28e5 | 9200 | inactive
Dop2R | DRSC20686 | 1.04e5 | 85940 | 93605 | 97405 | 10665 | inactive
CG8066 | DRSC16374 | 2.60e5 | 2.63e5 | 1.80e5 | 1.98e5 | 18078 | inactive
Dark | DRSC05922 | 99710 | 99090 | 1.98e5 | 2.06e5 | 8328 | inactive
Xbp1 | DRSC04553 | 1.65e5 | 1.46e5 | 2.36e5 | 2.56e5 | 11965 | inactive
CG13711 | DRSC08320 | 1.74e5 | 1.37e5 | 1.24e5 | 1.61e5 | 7785 | inactive
HERC2 | DRSC20566 | 74265 | 75870 | 1.07e5 | 88925 | 9115 | inactive
CG32112 | DRSC09815 | 1.83e5 | 1.63e5 | 2.46e5 | 2.07e5 | 10370 | inactive
CG12541 | DRSC17483 | 69905 | 72205 | 69705 | 56740 | 6205 | inactive
CG12541 | DRSC17839 | 1.36e5 | 1.51e5 | 2.46e5 | 2.51e5 | 11795 | inactive
CG9570 | DRSC20687 | 1.09e5 | 1.05e5 | 1.18e5 | 1.59e5 | 11135 | inactive
